Laboratory results from PubChem BioAssay AID248 (DTP/NCI, 2004).
The list shows only some results of the screen, not a fair sample: it gathers some chemical classes. Other doses and runs of a compound may be missing. T/C gives the treated animals as a percentage of the vehicle group. For survival time, the PubChem record calls one and a half times the control and up active, and a quarter to a half above the control has no call in these data; cut-offs in other NCI protocols can differ. Some entries show no survivor count and are marked so; the dose need not have been tolerated. Schedules are NCI's codes, read here as Q, the interval in days (D) or hours (H), X, the number of doses. Some doses were run more than once; their values stand side by side, smallest first.

Test system: L1210 leukemia ip in BDF1 mice, survival T/C
Test: NCI In Vivo Anticancer Drug Screen. Data for tumor model L1210 Leukemia (intraperitoneal) in B6D2F1 (BDF1) mice
Conditions: T/C endpoint: mean survival time, higher T/C = longer survival
[1] = dose: 25.0 mg/kg/injection, schedule: Q04DX003 (ip), vehicle: saline
[2] = dose: 50.0 mg/kg/injection, schedule: Q04DX003 (ip), vehicle: saline with Tween-80
[3] = dose: 100.0 mg/kg/injection, schedule: Q04DX003 (ip), vehicle: saline with Tween-80
[4] = dose: 200.0 mg/kg/injection, schedule: Q04DX003 (ip), vehicle: saline with Tween-80
[5] = dose: 25.0 mg/kg/injection, schedule: Q04DX003 (ip), vehicle: Klucel (hydroxypropylcellulose) (HPC)
[6] = dose: 50.0 mg/kg/injection, schedule: Q04DX003 (ip), vehicle: Klucel (hydroxypropylcellulose) (HPC)

Compound: BrCCN(CCBr)Cc1ccccc1
- T/C (dose: 0.75 mg/kg/injection, schedule: Q01DX009 (ip), vehicle: saline with Tween-80): 122 % of control [survivor count not shown]
- T/C (dose: 0.75 mg/kg/injection, schedule: Q01DX009 (ip), vehicle: saline): 92 % of control [survivor count not shown]
- T/C (dose: 1.5 mg/kg/injection, schedule: Q01DX009 (ip), vehicle: saline with Tween-80): 128 % of control [survivor count not shown]
- T/C (dose: 1.5 mg/kg/injection, schedule: Q01DX009 (ip), vehicle: saline): 105 % of control [survivor count not shown]
- T/C (dose: 3.0 mg/kg/injection, schedule: Q01DX001 (ip), vehicle: saline with Tween-80): 113 % of control [survivor count not shown]
- T/C (dose: 3.0 mg/kg/injection, schedule: Q01DX009 (ip), vehicle: saline with Tween-80): 136 [survivor count not shown] and 144 % of control [survivor count not shown]
- T/C (dose: 3.0 mg/kg/injection, schedule: Q01DX009 (ip), vehicle: saline): 117 % of control [survivor count not shown]
- T/C (dose: 3.0 mg/kg/injection, schedule: Q04DX003 (ip), vehicle: saline with Tween-80): 127 % of control [survivor count not shown]
- T/C (dose: 4.0 mg/kg/injection, schedule: Q04DX003 (ip), vehicle: saline with Tween-80): 129 % of control [survivor count not shown]
- T/C (dose: 6.0 mg/kg/injection, schedule: Q01DX001 (ip), vehicle: saline with Tween-80): 119 % of control [survivor count not shown]
- T/C (dose: 6.0 mg/kg/injection, schedule: Q01DX009 (ip), vehicle: saline with Tween-80): 118 % of control [survivor count not shown]
- T/C (dose: 6.0 mg/kg/injection, schedule: Q01DX009 (ip), vehicle: saline): 102 % of control [survivor count not shown]
- T/C (dose: 6.0 mg/kg/injection, schedule: Q04DX003 (ip), vehicle: saline with Tween-80): 118 [survivor count not shown] and 127 % of control [survivor count not shown]
- T/C (dose: 9.0 mg/kg/injection, schedule: Q04DX003 (ip), vehicle: saline with Tween-80): 117 % of control [survivor count not shown]
- T/C (dose: 12.0 mg/kg/injection, schedule: Q01DX001 (ip), vehicle: saline with Tween-80): 116 % of control [survivor count not shown]
- T/C (dose: 12.0 mg/kg/injection, schedule: Q01DX009 (ip), vehicle: saline): 120 % of control [survivor count not shown]
- T/C (dose: 12.0 mg/kg/injection, schedule: Q04DX003 (ip), vehicle: saline with Tween-80): 104 % of control [survivor count not shown]

Compound: COCc1c(CN(CCCl)CCCl)cnc(C)c1O
- T/C (dose: 4.4 mg/kg/injection, schedule: Q01DX001 (ip), vehicle: saline): 107 % of control [survivor count not shown]
- T/C (dose: 4.4 mg/kg/injection, schedule: Q01DX009 (ip), vehicle: saline): 143 % of control [survivor count not shown]
- T/C (dose: 6.7 mg/kg/injection, schedule: Q01DX001 (ip), vehicle: saline): 128 % of control [survivor count not shown]
- T/C (dose: 6.7 mg/kg/injection, schedule: Q01DX009 (ip), vehicle: saline): 150 % of control [survivor count not shown]
- T/C (dose: 9.5 mg/kg/injection, schedule: Q01DX001 (ip), vehicle: saline): 167 % of control [survivor count not shown]
- T/C (dose: 10.0 mg/kg/injection, schedule: Q01DX001 (ip), vehicle: saline): 128 % of control [survivor count not shown]
- T/C (dose: 10.0 mg/kg/injection, schedule: Q01DX009 (ip), vehicle: saline): 192 % of control [survivor count not shown]
- T/C (dose: 15.0 mg/kg/injection, schedule: Q01DX001 (ip), vehicle: saline): 148 % of control [survivor count not shown]
- T/C (dose: 15.0 mg/kg/injection, schedule: Q01DX009 (ip), vehicle: saline): 95 % of control [survivor count not shown]
- T/C (dose: 19.0 mg/kg/injection, schedule: Q01DX001 (ip), vehicle: saline): 149 % of control [survivor count not shown]

Compound: CN1CCCC(OC(=O)C(O)(c2ccccc2)C2CCCCC2)C1 (stereo not drawn)
- T/C [1]: 98 % of control [survivor count not shown]
- T/C (dose: 50.0 mg/kg/injection, schedule: Q04DX003 (ip), vehicle: saline): 106 % of control [survivor count not shown]
- T/C (dose: 100.0 mg/kg/injection, schedule: Q04DX003 (ip), vehicle: saline): 96 % of control [survivor count not shown]
- T/C (dose: 200.0 mg/kg/injection, schedule: Q04DX003 (ip), vehicle: saline): 106 % of control [survivor count not shown]

Compound: CN(C)CC1C2CCC(C2)C1OC(=O)C(O)(c1ccccc1)c1ccccc1 (stereo not drawn)
- T/C (dose: 25.0 mg/kg/injection, schedule: Q04DX003 (ip), vehicle: saline with Tween-80): 98 % of control [survivor count not shown]
- T/C [2]: 96 % of control [survivor count not shown]
- T/C [3]: 102 % of control [survivor count not shown]

Compound: O=C(OC1CCN2CCCC12)C(O)(c1ccccc1)c1ccccc1 (stereo not drawn)
- T/C (dose: 50.0 mg/kg/injection, schedule: Q01DX009 (ip), vehicle: saline with Tween-80): 101 % of control [survivor count not shown]
- T/C (dose: 100.0 mg/kg/injection, schedule: Q01DX009 (ip), vehicle: saline with Tween-80): 101 % of control [survivor count not shown]
- T/C [3]: 105 % of control [survivor count not shown]
- T/C (dose: 200.0 mg/kg/injection, schedule: Q01DX009 (ip), vehicle: saline with Tween-80): 97 % of control [survivor count not shown]
- T/C [4]: 96 % of control [survivor count not shown]

Compound: CN(C)CC1(COC(=O)C(O)(c2ccccc2)c2ccccc2)CCCCC1
- T/C (dose: 12.0 mg/kg/injection, schedule: Q04DX003 (ip), vehicle: Klucel (hydroxypropylcellulose) (HPC)): 106 % of control [survivor count not shown]
- T/C [5]: 93 % of control [survivor count not shown]
- T/C [6]: 107 % of control [survivor count not shown]

Compound: ClCCNCCCl.O=C(O)c1cccc2ccccc12
- T/C [2]: 92 % of control [survivor count not shown]
- T/C [3]: 109 % of control [survivor count not shown]
- T/C [4]: 147 % of control [survivor count not shown]

Compound: CC1CN(CCCOC(=O)C(O)(c2ccccc2)c2ccccc2)CCN1C (stereo not drawn)
- T/C (dose: 0.78 mg/kg/injection, schedule: Q04DX003 (ip), vehicle: saline): 101 % of control [survivor count not shown]
- T/C (dose: 1.56 mg/kg/injection, schedule: Q04DX003 (ip), vehicle: saline): 101 % of control [survivor count not shown]
- T/C (dose: 3.12 mg/kg/injection, schedule: Q01DX009 (ip), vehicle: saline): 97 % of control [survivor count not shown]
- T/C (dose: 3.12 mg/kg/injection, schedule: Q04DX003 (ip), vehicle: saline): 95 % of control [survivor count not shown]
- T/C (dose: 6.25 mg/kg/injection, schedule: Q01DX009 (ip), vehicle: saline): 103 % of control [survivor count not shown]
- T/C (dose: 6.25 mg/kg/injection, schedule: Q04DX003 (ip), vehicle: saline): 109 % of control [survivor count not shown]
- T/C (dose: 12.5 mg/kg/injection, schedule: Q01DX009 (ip), vehicle: saline): 102 % of control [survivor count not shown]
- T/C (dose: 12.5 mg/kg/injection, schedule: Q04DX003 (ip), vehicle: saline): 98 % of control [survivor count not shown]
- T/C (dose: 25.0 mg/kg/injection, schedule: Q01DX009 (ip), vehicle: saline): 97 % of control [survivor count not shown]
- T/C [1]: 92 % of control [survivor count not shown]

Compound: O=C(OC1CCN(CC2CC2)CC1)C(O)(c1ccccc1)c1ccccc1
- T/C (dose: 12.5 mg/kg/injection, schedule: Q04DX003 (ip), vehicle: Klucel (hydroxypropylcellulose) (HPC)): 97 % of control [survivor count not shown]
- T/C [5]: 97 % of control [survivor count not shown]
- T/C [6]: 101 % of control [survivor count not shown]
